In the supplement of paper PMC8728848:
This is one part of the list.

Columns and labels:
Assay in all cases: glycan array binding signal (z-score within array); higher = stronger binding
Details in all cases: glycan notation: IUPAC condensed, linker removed
[1] = biological target: Gal(b1-3)[Fuc(a1-4)]GlcNAc(b1-3)Gal(b1-4)GlcNAc
Summary of the method: (§1)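 Glycan array binding is given as a within-array Z-score, which can be read as non-binding when negative. The arrays, 3228 of them, came from the Consortium for Functional Glycomics database and were retained only where the protein sequence was available. Z-scores were averaged across arrays of the same protein sequence at different concentrations or buffers and across linkers.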

[2] = biological target: Gal(b1-3)[Fuc(a1-4)]GlcNAc(b1-3)Gal(b1-4)[Fuc(a1-3)]GlcNAc
Summary of the method: as §1

[3] = biological target: Gal(b1-3)[GlcNAc(b1-6)]GalNAc
Summary of the method: as §1

[4] = biological target: Gal(b1-3)[Neu5Ac(a2-6)]GalNAc
Summary of the method: as §1

[5] = biological target: Gal(b1-3)[Neu5Ac(a2-6)]GlcNAc(b1-6)Gal(b1-4)Glc
Summary of the method: as §1

[6] = biological target: Gal(b1-3)[Neu5Ac(b2-6)]GalNAc
Summary of the method: as §1

Gal(b1-4)Gal = biological target: Gal(b1-4)Gal
Summary of the method: as §1

[7] = biological target: Gal(b1-4)GalNAc(a1-3)[Fuc(a1-2)]Gal(b1-4)GlcNAc
Summary of the method: as §1

[8] = biological target: Gal(b1-4)GalNAc(b1-3)[Fuc(a1-2)]Gal(b1-4)GlcNAc
Summary of the method: as §1

Gal(b1-4)Glc = biological target: Gal(b1-4)Glc
Summary of the method: as §1

Gal(b1-4)Glc6S = biological target: Gal(b1-4)Glc6S
Summary of the method: as §1

Gal(b1-4)GlcNAc = biological target: Gal(b1-4)GlcNAc
Summary of the method: as §1

[9] = biological target: Gal(b1-4)GlcNAc(a1-6)Gal(b1-4)GlcNAc
Summary of the method: as §1

Gal(b1-4)GlcNAc(b1-2)Man = biological target: Gal(b1-4)GlcNAc(b1-2)Man
Summary of the method: as §1

[10] = biological target: Gal(b1-4)GlcNAc(b1-2)Man(a1-3)Man(b1-4)GlcNAc(b1-4)GlcNAc
Summary of the method: as §1

[11] = biological target: Gal(b1-4)GlcNAc(b1-2)Man(a1-3)[Gal(b1-4)GlcNAc(b1-2)Man(a1-6)]Man(b1-4)GlcNAc(b1-4)GlcNAc
Summary of the method: as §1

[12] = biological target: Gal(b1-4)GlcNAc(b1-2)Man(a1-3)[Gal(b1-4)GlcNAc(b1-2)Man(a1-6)]Man(b1-4)GlcNAc(b1-4)[Fuc(a1-6)]GlcNAc
Summary of the method: as §1

[13] = biological target: Gal(b1-4)GlcNAc(b1-2)Man(a1-3)[Gal(b1-4)GlcNAc(b1-2)][GlcNAc(b1-4)]Man(b1-4)GlcNAc(b1-4)GlcNAc
Summary of the method: as §1

[14] = biological target: Gal(b1-4)GlcNAc(b1-2)Man(a1-3)[GlcNAc(b1-2)Man(a1-6)]Man(b1-4)GlcNAc(b1-4)GlcNAc
Summary of the method: as §1

[15] = biological target: Gal(b1-4)GlcNAc(b1-2)Man(a1-3)[Man(a1-6)]Man(b1-4)GlcNAc(b1-4)GlcNAc
Summary of the method: as §1

[16] = biological target: Gal(b1-4)GlcNAc(b1-2)Man(a1-6)Man(b1-4)GlcNAc(b1-4)GlcNAc
Summary of the method: as §1

[17] = biological target: Gal(b1-4)GlcNAc(b1-2)Man(a1-6)[GlcNAc(b1-2)Man(a1-3)]Man(b1-4)GlcNAc(b1-4)GlcNAc
Summary of the method: as §1

[18] = biological target: Gal(b1-4)GlcNAc(b1-2)Man(a1-6)[Man(a1-3)]Man(b1-4)GlcNAc(b1-4)GlcNAc
Summary of the method: as §1

[19] = biological target: Gal(b1-4)GlcNAc(b1-2)[Gal(b1-4)GlcNAc(b1-4)]Man(a1-3)[Gal(b1-4)GlcNAc(b1-2)Man(a1-6)]Man(b1-4)GlcNAc(b1-4)GlcNAc
Summary of the method: as §1

[20] = biological target: Gal(b1-4)GlcNAc(b1-2)[Gal(b1-4)GlcNAc(b1-4)]Man(a1-3)[Gal(b1-4)GlcNAc(b1-2)[Gal(b1-4)GlcNAc(b1-6)]Man(a1-6)]Man(b1-4)GlcNAc(b1-4)GlcNAc
Summary of the method: as §1

[21] = biological target: Gal(b1-4)GlcNAc(b1-2)[Gal(b1-4)GlcNAc(b1-4)]Man(a1-3)[GlcNAc(b1-4)][Gal(b1-4)GlcNAc(b1-2)Man(a1-6)]Man(b1-4)GlcNAc(b1-4)GlcNAc
Summary of the method: as §1

[22] = biological target: Gal(b1-4)GlcNAc(b1-2)[Gal(b1-4)GlcNAc(b1-4)]Man(a1-3)[GlcNAc(b1-4)][Gal(b1-4)GlcNAc(b1-2)[Gal(b1-4)GlcNAc(b1-6)]Man(a1-6)]Man(b1-4)GlcNAc(b1-4)GlcNAc
Summary of the method: as §1

[23] = biological target: Gal(b1-4)GlcNAc(b1-2)[Gal(b1-4)GlcNAc(b1-6)]Man(a1-6)[Gal(b1-4)GlcNAc(b1-2)Man(a1-3)]Man(b1-4)GlcNAc(b1-4)GlcNAc
Summary of the method: as §1

[24] = biological target: Gal(b1-4)GlcNAc(b1-2)[Gal(b1-4)GlcNAc(b1-6)]Man(a1-6)[GlcNAc(b1-4)][Gal(b1-4)GlcNAc(b1-2)Man(a1-3)]Man(b1-4)GlcNAc(b1-4)GlcNAc
Summary of the method: as §1

[25] = biological target: Gal(b1-4)GlcNAc(b1-3)Gal(b1-3)GlcNAc
Summary of the method: as §1

[26] = biological target: Gal(b1-4)GlcNAc(b1-3)Gal(b1-4)Glc
Summary of the method: as §1

[27] = biological target: Gal(b1-4)GlcNAc(b1-3)Gal(b1-4)GlcNAc
Summary of the method: as §1

[28] = biological target: Gal(b1-4)GlcNAc(b1-3)Gal(b1-4)GlcNAc(b1-3)Gal(b1-4)GlcNAc
Summary of the method: as §1

[29] = biological target: Gal(b1-4)GlcNAc(b1-3)Gal(b1-4)[Fuc(a1-3)GlcNAc(b1-6)]Gal(b1-4)Glc
Summary of the method: as §1

[30] = biological target: Gal(b1-4)GlcNAc(b1-3)Gal(b1-4)[Fuc(a1-3)]GlcNAc(b1-3)Gal(b1-4)[Fuc(a1-3)]GlcNAc
Summary of the method: as §1

[31] = biological target: Gal(b1-4)GlcNAc(b1-3)GalNAc
Summary of the method: as §1

[32] = biological target: Gal(b1-4)GlcNAc(b1-3)[Gal(b1-4)GlcNAc(b1-6)]Gal(b1-4)GlcNAc
Summary of the method: as §1

[33] = biological target: Gal(b1-4)GlcNAc(b1-3)[Gal(b1-4)GlcNAc(b1-6)]GalNAc
Summary of the method: as §1

[34] = biological target: Gal(b1-4)GlcNAc(b1-3)[GlcNAc(b1-6)]Gal(b1-4)GlcNAc
Summary of the method: as §1

[35] = biological target: Gal(b1-4)GlcNAc(b1-6)Gal(b1-4)GlcNAc
Summary of the method: as §1

[36] = biological target: Gal(b1-4)GlcNAc(b1-6)GalNAc
Summary of the method: as §1

[37] = biological target: Gal(b1-4)GlcNAc(b1-6)[Gal(b1-3)]GalNAc
Summary of the method: as §1

Gal(b1-6)Gal = biological target: Gal(b1-6)Gal
Summary of the method: as §1

Gal3S(b1-3)GalNAc = biological target: Gal3S(b1-3)GalNAc
Summary of the method: as §1

Gal3S(b1-3)GlcNAc = biological target: Gal3S(b1-3)GlcNAc
Summary of the method: as §1

B1: Eosinophil-derived neurotoxin (EDN) (Homo sapiens), P10153 (protein)
chain: MVPKLFTSQICLLLLLGLLAVEGSLHVKPPQFTWAQWFETQHINMTSQQCTNAMQVINNYQRRCKNQNTFLLTTFANVVNVCGNPNMTCPSNKTRKNCHHSGSQVPLIHCNLTTPSPQNISNCRYAQTPANMFYIVACDNRDQRRDPPQYPVVPVHLDRII
glycan array binding signal (z-score) [1]: 0.334 | glycan array binding signal (z-score) [2]: 1.03 | glycan array binding signal (z-score) [3]: -0.071 | glycan array binding signal (z-score) [4]: -0.132 | glycan array binding signal (z-score) [5]: -0.73 | glycan array binding signal (z-score) [6]: 0.311 | glycan array binding signal (z-score) (Gal(b1-4)Gal): -0.926 | glycan array binding signal (z-score) [7]: 0.031 | glycan array binding signal (z-score) [8]: -0.207 | glycan array binding signal (z-score) (Gal(b1-4)Glc): -0.062 | glycan array binding signal (z-score) (Gal(b1-4)Glc6S): -0.305 | glycan array binding signal (z-score) (Gal(b1-4)GlcNAc): 0.494 | glycan array binding signal (z-score) [9]: 0.378 | glycan array binding signal (z-score) (Gal(b1-4)GlcNAc(b1-2)Man): 0.468 | glycan array binding signal (z-score) [10]: -0.452 | glycan array binding signal (z-score) [11]: -0.089 | glycan array binding signal (z-score) [12]: 1.36 | glycan array binding signal (z-score) [13]: -0.119 | glycan array binding signal (z-score) [14]: 0.268 | glycan array binding signal (z-score) [15]: 0.109 | glycan array binding signal (z-score) [16]: 0.225 | glycan array binding signal (z-score) [17]: -0.253 | glycan array binding signal (z-score) [18]: -0.853 | glycan array binding signal (z-score) [19]: -0.461 | glycan array binding signal (z-score) [20]: -0.48 | glycan array binding signal (z-score) [21]: -0.676 | glycan array binding signal (z-score) [22]: 0.239 | glycan array binding signal (z-score) [23]: -1.1 | glycan array binding signal (z-score) [24]: -0.279 | glycan array binding signal (z-score) [25]: -0.443 | glycan array binding signal (z-score) [26]: -1.02 | glycan array binding signal (z-score) [27]: -0.132 | glycan array binding signal (z-score) [28]: 0.104 | glycan array binding signal (z-score) [29]: 0.142 | glycan array binding signal (z-score) [30]: -0.777 | glycan array binding signal (z-score) [31]: -0.002 | glycan array binding signal (z-score) [32]: 1.13 | glycan array binding signal (z-score) [33]: -0.046 | glycan array binding signal (z-score) [34]: 1.36 | glycan array binding signal (z-score) [35]: 0.42 | glycan array binding signal (z-score) [36]: 0 | glycan array binding signal (z-score) [37]: 0.024 | glycan array binding signal (z-score) (Gal(b1-6)Gal): -0.248 | glycan array binding signal (z-score) (Gal3S(b1-3)GalNAc): 0.175 | glycan array binding signal (z-score) (Gal3S(b1-3)GlcNAc): 0.392
